The source of these data is PubChem BioAssay AID2685 (National Center for Advancing Translational Sciences (NCATS), 2010).

Several values for one entry are separate records, joined by “and”; a condition that tells them apart may be missing. Identical values can stand only once. The list shows a part of the results. Shown are side measurements of this screen, not its main read-out; they come without a call. The list favours compounds with an active or inconclusive main result. Potencies come from curve fits of mixed quality, noted in brackets.

A short description of the test: qHTS Assay for Lipid Storage Modulators in Drosophila S3 Cells.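 For cell number change: cells counted by Cell Tracker Red CMTPX staining in the red channel.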 The following applies: BODIPY lipid droplet fluorescence, 18-24 h; for cell number change: measured here: cell count max response, cells fed with added oleic acid. A digest of the protocol: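 Laser-scanning cytometry quantifies lipid droplet accumulation (500–530 nm total intensity; droplet/cell object ratio) in oleic acid-fed (400 uM added) Drosophila S3 cells treated with a concentration series. 20 uM Triacsin C defined 100% inhibition.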
Background: qHTS replaces the single test concentration by a dilution series.

[1] abbreviates: measured here: lipid fluorescence (Fed channel) AC50, cells fed with added oleic acid.
The mark [2] stands for this setting: measured here: cell number channel AC50, cells fed with added oleic acid.

Regarding `O=S(=O)(c1ccc(SCc2ccc(Cl)cc2)nc1)N1CCCC1`, the cell number change was -7.39%. Under setting [1], the AC50 was 6.51 µM [rising, single point].
Regarding `COC(=O)Nc1nc(-c2ccccc2)c(C(=O)c2ccccc2)s1`, the cell number change worked out at 6.56%.
Turning to `O=C(NCC1CCOCC1)c1cc(COc2ccc(F)cc2F)on1`, the cell number change is 64%. Moreover, under setting [2], the AC50 is 13 µM [rising, partial curve]. Under setting [1], the AC50 was 0.517 µM [rising, full curve].
As for `CCn1c(SCC(=O)c2ccc(Cl)cc2)nnc1-c1cccs1`, the cell number change came to 61.4%. In addition, under setting [2], the AC50 is 3.66 µM [rising, partial curve]. Under setting [1], the AC50 was 3.66 µM [rising, single point].
For `C=CCN(C(=O)CNC(=O)c1ccco1)C(C(=O)NC1CCCCC1)c1cccnc1` (centres undefined), the cell number change was -0.901%. Also, the AC50 under setting [1] is 29.1 µM [rising, single point].
As to `O=C(OCn1nnc2ccccc2c1=O)C12CC3CC(CC(O)(C3)C1)C2`, the cell number change was determined as 15.1%.
As for `O=c1[nH]c(/C=C/c2ccccc2Cl)nc2ccccc12`, the cell number change was 15.4%. Further, under setting [1], the AC50 was 7.31 µM [rising, partial curve, poor fit].
Consider `Nc1nc(N)nc(-c2cccc(Cl)c2)n1`, for which the cell number change was found to be 9.25%. For the same compound, under setting [1], the AC50 is 0.00461 µM [rising, full curve, poor fit].
As to `O=C(CNc1ccccc1)NNC1=NCCC1`, the cell number change was -13.8%. In addition, under setting [1], the AC50 was 0.517 µM [falling, full curve, poor fit].
In the case of `O=C(O)/C=C\c1cccc(-n2cnnn2)c1`, the cell number change was -7.23%. Further, the AC50 under setting [1] is 18.4 µM [falling, single point].
Turning to `CCOc1ccc(NCc2cccn2-c2nnc(N3CCC(C(=O)NCCCN4CCCCC4CC)CC3)s2)cc1` (centres undefined), the cell number change was 10.1%. Further, the AC50 under setting [1] was 7.31 µM [rising, partial curve].
Regarding `COc1cccc(-c2cc(C(=O)N3CCN(C(=O)c4ccco4)CC3)[nH]n2)c1`, the cell number change came out at 3.07%.
For `Cc1c(NC(=S)NC(=O)c2ccco2)cccc1-c1nc2ncccc2o1`, the cell number change was determined as 6.37%. Also, under setting [1], the AC50 was 0.116 µM [falling, full curve, poor fit].
As to `Cc1nn(-c2ccccc2)c(Cl)c1C(=O)NCC1CCCO1` (centres undefined), the cell number change came to 21.7%. Also, the half-maximal activity concentration (AC50) under setting [2] is 6.51 µM [falling, single point]. The AC50 under setting [1] was 11.6 µM [rising, partial curve, poor fit].
Take `O=C(OC1CSc2nc3ccccc3n2C1)c1ccco1` (centres undefined): the cell number change is -4.2%.
In the case of `Cn1c(SCC(=O)N/N=C/c2cccnc2)nnc1-c1ccccc1`, the cell number change stood at 22.2%. Also, under setting [1], the half-maximal activity concentration (AC50) was 2.31 µM [rising, full curve].
Take `Cc1ccc(-n2nnc3c(=O)n(Cc4ccccc4C)cnc32)cc1`: the cell number change was -20.6%. Also, the AC50 under setting [2] is 1.84 µM [rising, partial curve]. Further, under setting [1], the AC50 was 2.06 µM [rising, partial curve, poor fit].
Turning to `CCC(=O)NC(c1ccco1)c1cc(Br)c2cccnc2c1O` (centres undefined), the cell number change is 16.8%. Under setting [1], the AC50 was 29.1 µM [rising, single point].
In the case of `C=CCOc1ccccc1CN1CCC(Oc2ccc(C(=O)N3CCCC3)cc2)CC1`, the cell number change is -7.95%. Moreover, the AC50 under setting [1] is 16.4 µM [rising, partial curve].
Regarding `O=C(CN(c1ccc(Cl)cc1)S(=O)(=O)c1ccc(Cl)c([N+](=O)[O-])c1)NCCc1ccc(F)cc1`, the cell number change is -12.5%. Further, the AC50 under setting [2] is 0.651 µM [falling, full curve, poor fit]. Also, under setting [1], the concentration at half-maximal activity (AC50) was 0.731 µM [falling, full curve].
Take `O=C(O)CSc1nnc(-c2ccncc2)n1C1CCCCC1`: the cell number change was -20.7%. Further, the concentration at half-maximal activity (AC50) under setting [1] is 3.66 µM [falling, partial curve, poor fit].
Take `O=C(Cn1cnc2c(nnn2-c2ccccc2)c1=O)NCC1CCCO1` (centres undefined): the cell number change is -14.5%. Further, the AC50 under setting [1] is 29.1 µM [falling, single point].
On to `CC1=C(C(N)=O)C(c2cccnc2)n2nc(-c3cccc(Cl)c3)nc2N1` (centres undefined), for which the cell number change is -14.4%. The half-maximal activity concentration (AC50) under setting [1] is 1.3 µM [falling, full curve, poor fit].
For `Fc1cccc(-c2cc3nc4c(c(N5CCC6(CC5)OCCO6)n3n2)CCCC4)c1`, the cell number change was determined as 6.75%. Moreover, the AC50 under setting [1] is 2.06 µM [rising, partial curve].
In the case of `COc1ccc(Cc2nc3ccc(C(=O)NCc4cc(C)no4)cc3o2)cc1`, the cell number change was 24.8%. Also, the AC50 under setting [1] was 11.6 µM [rising, partial curve].
Take `Cc1cccc(Nc2nc(-c3ccc(O)cc3O)cs2)n1`: the cell number change is -33.1%. Moreover, the half-maximal activity concentration (AC50) under setting [2] is 2.59 µM [falling, full curve, poor fit]. Moreover, the AC50 under setting [1] is 6.51 µM [falling, partial curve, poor fit].
For the compound `CCC(=O)C1=C(O)C(c2cccc(Oc3ccccc3)c2)CCC1=O` (centres undefined), the cell number change was -15.3%. Also, the AC50 under setting [1] was 6.51 µM [falling, single point].
With `Cc1ccc(C(C(=O)NC2CCCC2)N(Cc2ccco2)C(=O)CCC(=O)Nc2ccccn2)cc1` (centres undefined), the cell number change was -17.4%.
For the compound `Cc1ccc(C(=O)CCS(=O)(=O)c2ccc(F)cc2)cc1`, the cell number change came to 32.4%. Further, the AC50 under setting [1] is 22.4 µM [falling, partial curve, poor fit].
For `Cc1cc(C)cc(Cn2ncc(Cl)c(Cl)c2=O)c1`, the AC50 under setting [1] is 0.58 µM [rising, single point].
Take `Cc1cc(C)c(NC(=O)CNC(=O)c2ccc(-n3cncn3)c([N+](=O)[O-])c2)c(C)c1`: the cell number change amounted to 33.7%.
In the case of `Cc1cnc(C(=O)OCc2ccc(C#N)cc2)cn1`, the cell number change was found to be 25.8%. The AC50 under setting [1] was 0.517 µM [rising, single point].
Consider `CN1C2CC(OC(=O)C(CO)c3ccccc3)CC1C1OC12` (centres undefined), for which the cell number change was 6.84% and -72.2%. Further, under setting [2], the AC50 was 4.11 µM [falling, full curve]. For the same compound, the AC50 under setting [1] is 29.1 µM [rising, single point] and 23.1 µM [rising, single point].
For `COc1ccc(CN2CCC(=O)N(CCO)CC2)cc1OC`, the cell number change is 12.6%.
As to `O=C(NCC1CCCO1)c1cc(-c2ccncc2)nc2ccccc12` (centres undefined), the cell number change is -7.48%. Besides, under setting [1], the AC50 is 0.13 µM [falling, full curve, poor fit].
Regarding `O=C(Nc1oc2ccc(Cl)cc2c(=O)c1-c1ccc(F)cc1)c1ccco1`, the cell number change is -22.4%. The AC50 under setting [1] was 29.1 µM [falling, single point].
As for `Cc1cc2c(s1)c(C#N)c(C(=O)NCc1ccccc1F)n2C`, the cell number change came to 46.8%. Under setting [2], the AC50 is 18.4 µM [rising, single point]. Further, under setting [1], the AC50 is 23.1 µM [rising, partial curve, poor fit].
For the compound `CCCN(CC(=O)Nc1ccccc1C)C(=O)c1ccc2c(c1)OCO2`, the cell number change is -31.5%. In addition, the AC50 under setting [2] is 1.84 µM [falling, partial curve, poor fit]. Under setting [1], the AC50 is 29.1 µM [falling, single point].
On to `Cc1cccc(-n2c(CNC(=O)COc3ccccc3)nnc2SCC(=O)Nc2nccs2)c1`, for which the cell number change was -6.9%. In addition, the AC50 under setting [1] is 1.46 µM [falling, partial curve, poor fit].
Take `N#Cc1cccc(C(c2nnnn2CCc2ccccc2)N2CCN(C3CCCCC3)CC2)c1` (centres undefined): the cell number change is 5.41%.
On to `CC(C)Oc1ccc(C(CCNCc2ccc(O)cc2)c2ccccc2)cc1` (centres undefined), for which the cell number change was -25.2%. Moreover, the concentration at half-maximal activity (AC50) under setting [2] is 0.146 µM [rising, partial curve, poor fit]. Also, under setting [1], the AC50 is 29.1 µM [falling, single point].
Consider `COc1ccccc1OCCSc1nnc(C)n1-c1ccccc1`, for which the cell number change was -0.694%. The AC50 under setting [2] is 0.00461 µM [rising, full curve, poor fit].
Regarding `Cc1cc2c(nn1)CCc1c-2no[n+]1[O-]`, the cell number change was -3.51%. The AC50 under setting [2] was 0.92 µM [falling, full curve, poor fit].
Regarding `CCN1C(=NCC(C)C)N[C@@H](c2ccccc2)[C@H](C(=O)OC)[C@H]1C`, the cell number change amounted to 25.6%. The AC50 under setting [1] was 29.1 µM [rising, single point].
Take `Cn1c(O)c(N=NC(=O)CNC(=O)c2ccccc2)c2cc(Br)ccc21`: the cell number change stood at 3.48%.
`CC(=O)Nc1ccc(OCC=C(Cl)Cl)cc1`: the cell number change turned out to be 108%. Besides, the AC50 under setting [2] is 14.6 µM [rising, partial curve]. Moreover, under setting [1], the AC50 is 2.06 µM [rising, partial curve].
On to `CCCC(=O)NC(NC(=S)Nc1ccc(N=Nc2ccccc2)cc1)C(Cl)(Cl)Cl` (centres undefined), for which the cell number change was -39.8%. Also, under setting [2], the AC50 is 18.4 µM [falling, single point]. Besides, the AC50 under setting [1] is 18.4 µM [falling, single point].
As to `O=C(CN1CCCCC1)Nc1cccc(Cl)c1`, the cell number change stood at 28.3%.
As for `C/C(Nc1ccc(Cl)cc1)=C(/C#N)C(N)=O`, the cell number change is -10.7%. The AC50 under setting [1] was 0.164 µM [falling, full curve, poor fit].
Regarding `COCCNC(=O)COC(=O)c1ccc(S(=O)(=O)N2CCOCC2)cc1`, the cell number change was -39.2%. Under setting [2], the AC50 was 32.6 µM [falling, single point]. Also, under setting [1], the concentration at half-maximal activity (AC50) was 32.6 µM [falling, single point].
On to `CC1CCC(NC(=O)C2CC(=O)N(c3ccc4c(c3)OCCO4)C2)CC1` (centres undefined), for which the cell number change is 0.206%. Moreover, under setting [1], the AC50 was 0.00411 µM [rising, partial curve, poor fit].
For `O=C(c1ccco1)N1CCN(CCCCOc2ccc(F)cc2)CC1`, the cell number change was -1.42%. Besides, under setting [2], the AC50 was 6.51 µM [falling, single point].
Consider `CCN(c1ccc(NC(=O)COC(=O)c2cccs2)cc1)C(C)C`, for which the cell number change is 16.8%. The AC50 under setting [1] was 6.51 µM [rising, single point].
For the compound `COc1ccc(CC(=O)NNC(=O)COc2ccc(Cl)cc2C)cc1S(=O)(=O)N1CCOCC1`, the cell number change is -14.9%.
Take `Cn1ncc2c1ncn1nc(COc3ccc4ccccc4c3)nc21`: the cell number change is -0.194%. In addition, the AC50 under setting [1] is 0.092 µM [rising, full curve, poor fit].
`COC(C(=O)N/N=C(\C)c1ccc(C)cc1)c1ccccc1` (centres undefined): the cell number change is -35.7%. Besides, under setting [2], the AC50 is 20.6 µM [falling, partial curve].
As to `Cc1ccccc1C(=O)Nc1ccccc1C(=O)NCC(C)C`, the cell number change is -19.3%. In addition, the AC50 under setting [1] is 0.517 µM [falling, partial curve].
Take `COCCNC(=O)C(c1ccc(F)cc1)N(CCOC)C(=O)CCC(=O)Nc1nccs1` (centres undefined): the cell number change is -3.21%.
Consider `COC(=O)c1ccc(NC(=O)CSc2nnc(COc3ccccc3)n2C)cc1`, for which the cell number change was -218%. Moreover, under setting [1], the AC50 was 0.651 µM [falling, single point].
On to `NC(=O)c1nsc(C(=O)N(Cc2cccnc2)C(C(=O)NC2CCCC2)c2ccc(F)cc2)c1N` (centres undefined), for which the cell number change was -3.48%.

The term AC50 denotes the concentration giving half of the maximal activity seen. High values mean activity only at high concentration, low ones activity at low concentration.
